PubChem BioAssay AID1259308, NCATS | 2017
The whole screen tested about 59,000 reagents; this is an unselected part. Over the whole deposit, about 1,510 (2.6%) got an active call. 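Calls use total luciferase alone and ignore viability, so some active siRNAs may act by altering cell number.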 Unmarked entries are inactive. The numbers tell different reagents against one gene apart.

Test: 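Candidate targets for better recombinant protein yield in mammalian cells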 (primary screen)
System: human HEK293 embryonic kidney cells stably expressing firefly luciferase (HEK-CMV-Luc2-Hygro)
Knock-down reagent: single siRNA against human genes, 0.8 pmol siRNA per well
Duration: 72 h
Measurement: 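Reporter luminescence and viable-cell signal on separate replicate plates, given as percent of non-targeting control and median/MAD z-scores, plus per-cell luciferase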
Scale: total luciferase, z-score and total luciferase, % of control: higher = more reporter protein produced; luciferase per cell, z-score: higher = more reporter output per viable cell; viable cells, % of control: higher = more viable cells
Rule for the call: 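An siRNA counts as active if its total luciferase robust z-score exceeds 3; genes with two or more such siRNAs out of three were retested with fresh siRNAs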
Meaning of the calls: active = raised luciferase; inactive = no rise

target,reagent,"total luciferase, z-score","total luciferase, % of control","luciferase per cell, z-score","viable cells, % of control"
ATP5MJ (ATP synthase membrane subunit j),1,2.33,128,2.5,74.1
ATP5MJ (ATP synthase membrane subunit j),2,-0.353,74.9,-0.249,89.3
ATP5MJ (ATP synthase membrane subunit j),3,0.313,88.1,0.396,88.7
PPL (periplakin),1,-0.414,73.6,-0.193,86.6
PPL (periplakin),2,-0.909,63.8,-0.852,89.2
PPL (periplakin),3,-0.185,78.2,0.0597,86
UBXN8 (UBX domain protein 8),1,-0.162,78.7,-0.681,105
UBXN8 (UBX domain protein 8),2,0.046,82.8,0.455,82.1
UBXN8 (UBX domain protein 8),3,0.297,87.8,0.0905,95.8
NRXN1 (neurexin 1),1,-0.999,62,-1.83,112
NRXN1 (neurexin 1),2,-0.249,76.9,-0.413,95.9
NRXN1 (neurexin 1),3,-0.113,79.6,-0.171,93.1
LOC100533706 (NEDD8 activating enzyme E1 subunit 1 pseudogene),1,-2.55,31.2,-3.33,83.7
LOC100533706 (NEDD8 activating enzyme E1 subunit 1 pseudogene),2,-2.35,35.1,0.45,34.8
LOC100533706 (NEDD8 activating enzyme E1 subunit 1 pseudogene),3,-0.814,65.7,-0.846,91.7
SPATA20 (spermatogenesis associated 20),1,-1.8,46,-1.29,72.3
SPATA20 (spermatogenesis associated 20),2,0.694,95.7,0.985,82.5
SPATA20 (spermatogenesis associated 20),3,2.14,125,1.72,88.4
DENND2A (DENN domain containing 2A),1,1.54,112,1.43,86.2
DENND2A (DENN domain containing 2A),2,0.955,101,0.53,98
DENND2A (DENN domain containing 2A),3,-1.1,60,-1.12,90.2
EPB41L4A (erythrocyte membrane protein band 4.1 like 4A),1,0.415,90.1,0.651,84.8
EPB41L4A (erythrocyte membrane protein band 4.1 like 4A),2,0.795,97.7,-0.0231,110
EPB41L4A (erythrocyte membrane protein band 4.1 like 4A),3,0.181,85.5,1.14,70.8
FBXO8 (F-box protein 8),1,0.00168,81.9,0.21,86.6
FBXO8 (F-box protein 8),2,-1.26,56.8,-0.696,76.2
FBXO8 (F-box protein 8),3,2.04,122,1.03,104

Next part; the last 5 above are carried over.
target,reagent,"total luciferase, z-score","total luciferase, % of control","luciferase per cell, z-score","viable cells, % of control"
EPB41L4A (erythrocyte membrane protein band 4.1 like 4A),2,0.795,97.7,-0.0231,110
EPB41L4A (erythrocyte membrane protein band 4.1 like 4A),3,0.181,85.5,1.14,70.8
FBXO8 (F-box protein 8),1,0.00168,81.9,0.21,86.6
FBXO8 (F-box protein 8),2,-1.26,56.8,-0.696,76.2
FBXO8 (F-box protein 8),3,2.04,122,1.03,104
PPP4C (protein phosphatase 4 catalytic subunit),1,1.95,121,1.06,102
PPP4C (protein phosphatase 4 catalytic subunit),2,0.884,99.5,0.0364,110
PPP4C (protein phosphatase 4 catalytic subunit),3,-0.749,67,-0.229,79.5
CPEB2-DT (CPEB2 divergent transcript),1,1.08,103,0.675,96.7
CPEB2-DT (CPEB2 divergent transcript),2,1.55,113,1.9,76.3
CPEB2-DT (CPEB2 divergent transcript),3,-0.317,75.6,-0.62,99.4
PPWD1 (peptidylprolyl isomerase domain and WD repeat containing 1),1,1.43,110,1.39,85.5
PPWD1 (peptidylprolyl isomerase domain and WD repeat containing 1),2,-0.355,74.8,-0.358,91.9
PPWD1 (peptidylprolyl isomerase domain and WD repeat containing 1),3,0.454,90.9,1.01,77.9
UNC5CL (unc-5 family C-terminal like),1,1.93,120,1.76,84.6
UNC5CL (unc-5 family C-terminal like),2,0.693,95.7,0.282,99.2
UNC5CL (unc-5 family C-terminal like),3,-2.92,23.8,-3.56,67.9
ABHD12B (abhydrolase domain containing 12B),1,-0.726,67.4,-0.0495,76.3
ABHD12B (abhydrolase domain containing 12B),2,1.31,108,2.18,67.9
ABHD12B (abhydrolase domain containing 12B),3,-0.672,68.5,-0.515,87.7
H2AZ2 (H2A.Z variant histone 2),1,2.62,134,2.45,78.5
H2AZ2 (H2A.Z variant histone 2),2,0.714,96.1,0.401,96.6
H2AZ2 (H2A.Z variant histone 2),3,1.48,111,0.653,105
"DPM3 (dolichyl-phosphate mannosyltransferase subunit 3, regulatory)",1,-0.117,79.6,-0.0728,90.6
"DPM3 (dolichyl-phosphate mannosyltransferase subunit 3, regulatory)",2,-0.15,78.9,-0.176,92.4
"DPM3 (dolichyl-phosphate mannosyltransferase subunit 3, regulatory)",3,0.169,85.3,-0.509,109
TXNRD3 (thioredoxin reductase 3),1,-0.235,77.2,0.18,82.3
TXNRD3 (thioredoxin reductase 3),2,0.397,89.8,0.289,93
TXNRD3 (thioredoxin reductase 3),3,0.392,89.7,-0.319,109
TXNRD3 (thioredoxin reductase 3),4,-0.775,66.5,-0.369,81.9
TXNRD3 (thioredoxin reductase 3),5,-1.23,57.3,-1.45,93.8
TXNRD3 (thioredoxin reductase 3),6,-0.328,75.4,0.137,81.2
FNDC3B (fibronectin type III domain containing 3B),1,1.08,103,0.496,101
FNDC3B (fibronectin type III domain containing 3B),2,-0.0856,80.2,0.0828,87.7
FNDC3B (fibronectin type III domain containing 3B),3,-1.51,51.8,-1.24,80.2
